Laboratory results: publication PMC12370185
This is one part of the list. At the low end of the ranking the order means little.

What follows are sequences tested on OCT4 + histone octamer (assay: Pioneer-seq (competitive nucleosome EMSA with sequencing)). Conditions: 10 mM Tris-Cl pH 7.5, 50 mM NaCl, 1 mM DTT, 0.25 mg/ml BSA, 2 mM MgCl2, 0.025% Nonidet P-40, 5% glycerol; 28 nM nucleosome library; 10 min on ice then 30 min …; high values mean tight binding; double strand, one strand shown.

Sequence | binding signal (log2 relative supershift)
GATGGACCCTATACGCGGCTTTTAAAAATCAATGGCTGATAATACTGTTATCTGTGGTTATACAGCTGATACCAGCATTAAGGACCAAGGTGTCTGTACTAGTGTTTGTATTGCAGGAGGTGGAGAGCGAACAATACCATGAAAAGCAACAAGTTCCTGTGTGCTGCTATATTTGGATAAGAGAGGAAGAATGAGATGGAGGGACTTGTTTGCCAGTCGGATAGTGTTCC | -0.404
GATGGACCCTATACGCGGCTGGTTCTCTCACCCCAGACACACCAGGGCTGATCCAACATATCTGGCTCAACATCACCCACAAGTCTCAACAGGGCCCTGAAAACCACCTCTGACTCCACAACCCACTGTCCCACGCCCTGGGAGGTAGGCTGTGTCTGGGCTTGCTCACGTCTGGGAACAGCAAAGTCTGGCCCAAGCCTGTTCAGCCTGTGCCAGTCGGATAGTGTTCC | -0.681
GATGGACCCTATACGCGGCCGTGCCTGGAGCTTGGAATTCAGGCCAGAAACCACCAGTGGACACCAGCATTCCACACTCACTGCACAGGCTGGGGCTCAAACCAAGGCCCAGGGACAGGAAGGGACAAGCCCCAGCCCCAGCCGGACTCCCAGCCCACACAAACCATCAGGGCTTGTTTCCTGCTCCATGGAAGCCTCAGACATGTTTCATGCCAGTCGGATAGTGTTCC | -0.431
GATGGACCCTATACGCGGCGCAAAGCTCCAGTACCCTCAGGCCACACCTACTGGAAAAATATATGTCAGCCCCAGAAAATTGTGGGCAAGATGAGGCAAGTCCTGAGCAACACAGGAAACTGCCCTCCTCCTTTTCTGGCCCCGCTTCCACTGTGATGCTAAAGATCGCATCAAGGCTGGTCATCCAATCAGCAGGATGTAAGAGGGTCATGCCAGTCGGATAGTGTTCC | -0.611
GATGGACCCTATACGCGGCAGAGAGCCCAAGACTAGAAATGCCCATATCTTCCCATGGAAAGTGTTCCTCTGATAGGCGGGAGACAGAGGACCAAATTGCAAGTTACAACCTGCAGCCTGGGAGTTTCAGGGGCTTCAACACCAAATGAAATTGGAGAACTATCAACAGGATTCAGGGTTCAGCACAGGCTCCAGCAAGACAGAGAGAAATGCCAGTCGGATAGTGTTCC | -0.193
GATGGACCCTATACGCGGCTGTGTTTTAAAAAAGAAGTATTTCTTGCAAACACTTATGACTTGTCTATGTCTTCTACAAGTCTGGACATGTCTTGGAACATTATCTGTGTTCTGTGGGTTACAAGGCTTGTCGAGGTCAAAGTACTCAGACATGAGACAGGCACCTTGTATACTCCAGAGAGCTAGAAATACTTGGAGATTAAGTCTAGTTGCCAGTCGGATAGTGTTCC | -0.41
GATGGACCCTATACGCGGCGAACAATCAAGAGCTGTTTCTCTTTGCTCTTCCTCATAGCCATGCTGGAGGCATTCATAGGCACATCCTGGTGGAGGGTGATTTGGGTGGGTAGGAATGGACTTGTTCTGTTGACATTGGCATGAAAGGACTAGAGTGCATCCATCATTCTATGGGTATTTAATGGGCCCTATGTTGAGCTGTGTTCTGGTTGCCAGTCGGATAGTGTTCC | -0.399
GATGGACCCTATACGCGGCTGGGGCTCAGTGTTCTGGGAGAAGTGGGTTCTAGCTCTGCCGCTGGGCCCTGGGTGTGGGCGCCCAATCGTCCGGGAAGCGCCCACAAGCCCAGGCAAGTCCCGACAGCGGTAGCCCGAGCCCAAGCGCTGCGGGCCCGGCGTCCCAGTGACCCCAGTTCCGGGTCCGAGGCACCGCCGGCGGCATCTCCCTGCCAGTCGGATAGTGTTCC | -0.914
GATGGACCCTATACGCGGCGGGTCCCCAGAGAATCTCCAGGCACACAAGTGTCTACCACAGATAAAACATCTGGTGCAGATAAGGGAACCTGCACAGGGGCTTGCCTGGACATGCCAGCAGCAGACTGGAGGCCCACATGCACTGGGGAGCTGGGGTGGAGCCACCAAGAATTCATGCCTTATGCAGAGGAGGAGCCTGGCCTCTTCAGCTGCCAGTCGGATAGTGTTCC | -0.873
GATGGACCCTATACGCGGCTTCTCTTTCTCCCTGCCTCCACCAGCCCAGACCCCACCCCACCTCCTGTAAACCAGGGGCAGCAGGGGAGGGACGCTTTGCAGAGCAGTGCAAGTACAGACAAGTGCGTCGCTGAATCTGTGATCAGTGCTGGGGGCCCCTCAGGGCTGCCTGTACCTGGGTGGGGTGGGACATCACCAGCCCATAGCCCATGCCAGTCGGATAGTGTTCC | -0.244
GATGGACCCTATACGCGGCGAGGAAGAGTCCCAGGGTGATGAGGGTGAGGGTGTGTTCCCTCCCACAATTAATGCCATCACAGTGAGATCTGCCTAATAATAGGATCTCCAGACCCCAGCAAATTGTCTGCTGATCTCAGGCAATGTTTGTCTGTAAGAATCCTTCGCCCTGTGTAAACATTTTATTAGACCATTAAGTTGCCGTCAGCCTGCCAGTCGGATAGTGTTCC | -0.598

Individual results from the list.
GATGGACCCTATACGCGGCGAACAATCAAGAGCTGTTTCTCTTTGCTCTTCCTCATAGCCATGCTGGAGGCATTCATAGGCACATCCTGGTGGAGGGTGATTTGGGTGGGTAGGAATGGACTTGTTCTGTTGACATTGGCATGAAAGGACTAGAGTGCATCCATCATTCTATGGGTATTTAATGGGCCCTATGTTGAGCTGTGTTCTGGTTGCCAGTCGGATAGTGTTCC – binding signal (log2 relative supershift): -0.399
GATGGACCCTATACGCGGCGAGGAAGAGTCCCAGGGTGATGAGGGTGAGGGTGTGTTCCCTCCCACAATTAATGCCATCACAGTGAGATCTGCCTAATAATAGGATCTCCAGACCCCAGCAAATTGTCTGCTGATCTCAGGCAATGTTTGTCTGTAAGAATCCTTCGCCCTGTGTAAACATTTTATTAGACCATTAAGTTGCCGTCAGCCTGCCAGTCGGATAGTGTTCC – binding signal (log2 relative supershift): -0.598
